Results on one molecule are retold here after publication doi:10.1101/2021.10.15.464533.

Results are given in words; binding and its absence hold for the method and conditions named. In cells and extracts the contact can be indirect. Here binding means that the protein was enriched with, or labelled near, the bait; the list need not be complete. Where a sequence is shown, tags or fusion partners need not be part of it.

In this assay the target is T1, … (PI) fused to TurboID and 3xMyc (Arabidopsis), P48007.
T1 chain: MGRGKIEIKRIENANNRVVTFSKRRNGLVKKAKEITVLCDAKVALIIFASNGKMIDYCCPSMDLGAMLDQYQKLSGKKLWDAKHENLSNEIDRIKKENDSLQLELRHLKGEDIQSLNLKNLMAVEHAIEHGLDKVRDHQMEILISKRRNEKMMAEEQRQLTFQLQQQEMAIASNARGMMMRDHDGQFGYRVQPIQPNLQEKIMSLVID
Kind of assay: proximity labelling. The settings on record: remark: other sources report otherwise.

B1: APETALA3 (AP3) fused to GFP, P35632 1-232 (protein)
chain: MARGKIQIKRIENQTNRQVTYSKRRNGLFKKAHELTVLCDARVSIIMFSSSNKLHEYISPNTTTKEIVDLYQTISDVDVWATQYERMQETKRKLLETNRNLRTQIKQRLGECLDELDIQELRRLEDEMENTFKLVRERKFKSLGNQIETTKKKNKSQQDIQKNLIHELELRAEDPHYGLVDNGGDYDSVLGYQIEGSRAYALRFHQNHHHYYPNHGLHAPSASDIITFHLLE
modifications: here or on the partner: biotinylated by PI-TurboID (sites not given); likely auto-biotinylated (sites not given)
B1: the binding result is “binds”.
